# In PubChem BioAssay AID1347075 (National Center for Advancing Translational Sciences (NCATS), 2019):
# Screen size: about 400,000 compounds; about 5,500 (1.4%) were called active. This list was built around the results that the source calls inconclusive (neither active nor inactive); the mix of calls is not that of the screen. The call rests on the fitted dose curve; in most records, active means well fitted cell-killing curve with a large enough effect; inconclusive means small, poorly fitted or top-dose-only effect, or effect the other way; inactive means flat fitted curve, though single readings scatter. Potencies beside an inconclusive call are fits to weak or partial responses and may not hold up.
# Assay: qHTS assay for MDR1-selective chemotherapeutics: Primary screen using the parental adenocarcinoma cell KB-3-1; further: nearly all actives have a fitted effect of over 60% in size
# Details: KB-3-1 viability, CellTiter-Glo ATP luminescence, 72 h; activity change, negative = cytotoxic: at 46.1 µM (top of the series)
# Method in brief: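 Viability of parental KB-3-1 cells, measured by CellTiter-Glo luminescence, followed a 72 h incubation at 37 °C with pinned compounds in phenol-red-free DMEM containing 10% FBS.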
# On the % scale 0 is the no-effect control and ±100 the full control effect; potency means the concentration at half of the fitted maximal effect.
SMILES,Potency,"activity change, negative = cytotoxic"
COc1ccc(/C=C/C2=CC(C)(C)NC(=S)N2)cc1,"inconclusive: 29.1 µM [cytotoxic, single point]",
C#CCNC(=O)C[C@@H]1C[C@@]2(C(=O)OC)CC(C)(C)CC=C2N(Cc2ccccc2)C1=O,,inactive: 0.305%
O=C(NCCc1ccncc1)Nc1ccc(Cl)c(Cl)c1,,inactive: 3.36%
CCOc1ccc2oc(-c3ccccc3)c(C(=O)N(C)C)c2c1,,inactive: 17.9%
CCCc1cc(C(=O)Nc2c(C)nn(Cc3ccc(Cl)c(Cl)c3)c2C)no1,"inconclusive: 29.1 µM [cytotoxic, single point]",
CCC(=O)Nc1cccc(C2=NOC3(C2)C[C@@H](C(N)=O)N(C(=O)c2ccc(OC)cc2)C3)c1 (stereo partly drawn),"inconclusive: 29.1 µM [rising, single point]",
Cc1ccc2c(c1)C(=O)C(=O)N2Cc1ccc(C(F)(F)F)cc1,"inconclusive: 29.1 µM [cytotoxic, single point]",
COc1ccc2oc(C(=O)N3CCN(C(=O)c4ccco4)CC3)c(C)c2c1,,inconclusive: 43.6%
COc1ccccc1N1CCN(C(=O)C2CCCN(S(=O)(=O)c3ccc(C)cc3)C2)CC1 (stereo not drawn),,inactive: -23.8%
Cc1ccc(S(=O)(=O)Nc2ccc(N(C)C)cc2)cc1,"inconclusive: 29.1 µM [cytotoxic, single point]",
O=C(CSc1nc2ccccc2[nH]1)N=Nc1c(O)[nH]c2ccccc12,"inconclusive: 20.6 µM [rising, partial curve, poor fit]",
CS(=O)(=O)N(CC(=O)Nc1ccc(S(=O)(=O)N2CCOCC2)cc1)c1ccccc1Br,,inactive: -3.43%
O=C(CN(c1ccc(Cl)c(Cl)c1)S(=O)(=O)c1ccccc1)N1CCc2ccccc2C1,"inconclusive: 23.1 µM [cytotoxic, single point]",
CCCCC(CC)CN=C(N)NC(N)=NCCCCCCN=C(N)NC(N)=NCC(CC)CCCC (stereo not drawn),"inconclusive: 23.1 µM [cytotoxic, single point]",
Cc1cc(C(=O)O)cc(S(=O)(=O)NNC(=O)c2cccs2)c1C,"inconclusive: 32.6 µM [cytotoxic, partial curve, poor fit]",
CCN(CC)S(=O)(=O)c1cccc(C(=O)N[C@H](C(=O)NCc2ccc(Cl)cc2)C(C)C)c1,"inconclusive: 29.1 µM [cytotoxic, single point]",
O=C(NNC1=Nc2cccc3cccc1c23)c1ccc(Br)cc1,"inconclusive: 23.1 µM [cytotoxic, single point]",
CCCCCC(=O)N1C[C@@H](O)[C@H](n2cc(C3CC3)nn2)C[C@@H]1c1ccc(Cl)cc1,"inconclusive: 2.59 µM [cytotoxic, partial curve, poor fit]",

# As a short view, two of the compounds above.
SMILES,Potency,"activity change, negative = cytotoxic"
Cc1cc(C(=O)O)cc(S(=O)(=O)NNC(=O)c2cccs2)c1C,"inconclusive: 32.6 µM [cytotoxic, partial curve, poor fit]",
CCN(CC)S(=O)(=O)c1cccc(C(=O)N[C@H](C(=O)NCc2ccc(Cl)cc2)C(C)C)c1,"inconclusive: 29.1 µM [cytotoxic, single point]",
